The nature of data set [1]: Example 20: loading kinetics, aqueous 10% lidocaine, 10% PEG 400, 10% propylene glycol, 2% Polysorbate 80, 60° C., pre-cut shapes of 91.4% polyamide/8.6% elastane, squeezed. Format: physicochemical. The settings on record: loading time 60 min; Shape A.
Test in data set [2]: not given
The source holds these as a separate data set.

Read-outs that look alike come from different tables or passages of the source.

Consider `CCN(CC)CC(=O)Nc1c(C)cccc1C` [Lidocaine, lidocaine], for which the “% Add on” value in data set [1] is listed as 45.729%. The “lidocaine concentration in the mother liquor” value (“lidocaine concentration” below) (0.1%/25° C. liquor) amounted to 0.995 mg/mL; the “lidocaine concentration” value (0.1%/80° C. liquor) came to 0.862 mg/mL; the “lidocaine concentration” value in data set [2] (0.1% liquor) was 0.457 mg/mL; the “lidocaine concentration” value in data set [2] (0.4% liquor) was 1.489 mg/mL; the “lidocaine concentration” value in data set [2] (1% liquor) worked out at 2.659 mg/mL.

(Values after patent US20230255884A1, “FINISHED FIBROUS SRUCTURES AND METHODS OF THEIR USE AND PREPARATION” (CLEXIO BIOSCIENCES LTD., priority 2019, published 2023).)
